Measured values: paper PMC3731217
No constants are given. Whether binding was seen depends on the method and setting. In cells and extracts the contact can be indirect. Some entries that bind do so weakly or less than the wild type. Where a sequence is shown, tags or fusion partners need not be part of it.

The chains behind the UniProt entries cited, without tags or fusion partners.
UniProt Q02248: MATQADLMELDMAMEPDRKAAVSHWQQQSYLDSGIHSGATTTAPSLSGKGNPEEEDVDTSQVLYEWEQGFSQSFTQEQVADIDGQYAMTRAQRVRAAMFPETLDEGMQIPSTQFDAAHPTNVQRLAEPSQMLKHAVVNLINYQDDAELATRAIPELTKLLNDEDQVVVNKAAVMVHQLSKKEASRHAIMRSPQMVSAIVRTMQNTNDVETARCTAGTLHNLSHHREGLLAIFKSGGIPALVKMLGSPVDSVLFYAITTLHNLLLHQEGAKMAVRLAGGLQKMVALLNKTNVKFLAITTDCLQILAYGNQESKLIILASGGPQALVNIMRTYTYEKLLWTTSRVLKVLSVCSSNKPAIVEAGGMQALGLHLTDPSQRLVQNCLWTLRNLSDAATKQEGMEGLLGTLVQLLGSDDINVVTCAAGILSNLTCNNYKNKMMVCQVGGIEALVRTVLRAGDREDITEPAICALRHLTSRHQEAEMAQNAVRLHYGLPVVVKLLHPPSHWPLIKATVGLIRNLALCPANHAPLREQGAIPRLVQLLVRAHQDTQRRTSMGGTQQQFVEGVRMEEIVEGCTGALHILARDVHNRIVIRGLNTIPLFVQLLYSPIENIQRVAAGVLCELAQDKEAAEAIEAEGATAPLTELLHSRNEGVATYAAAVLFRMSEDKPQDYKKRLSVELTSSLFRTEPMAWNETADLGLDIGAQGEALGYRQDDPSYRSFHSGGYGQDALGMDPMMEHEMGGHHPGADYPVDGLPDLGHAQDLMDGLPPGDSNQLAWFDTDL

Molecular target: T1, GST-fusion protein of the inhibitor of β-catenin and TCF-4 (ICAT) (UniProt Q9NSA3)
T1 sequence: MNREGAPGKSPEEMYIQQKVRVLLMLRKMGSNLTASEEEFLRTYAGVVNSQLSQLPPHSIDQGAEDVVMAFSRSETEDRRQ
Assay: pull-down; µGST pull-down within a suspension bead array panel; GST-ICAT as bait protein; small intestine epithelial cell extracts of four mouse genotypes; signal in relative fluorescence units; only the target purified

## β-catenin (from UniProt Q02248 1-781)
  binding: binds
